Experimental data: paper PMC2648312
Results are given in words; binding and its absence hold for the method and conditions named. Binding seen in cells or lysates may run through a third protein. Some results given as binding are weak or reduced against the parent protein; the word gives no strength.

Chains of the proteins cited; added tags and fusions are not shown.
UniProt P11309: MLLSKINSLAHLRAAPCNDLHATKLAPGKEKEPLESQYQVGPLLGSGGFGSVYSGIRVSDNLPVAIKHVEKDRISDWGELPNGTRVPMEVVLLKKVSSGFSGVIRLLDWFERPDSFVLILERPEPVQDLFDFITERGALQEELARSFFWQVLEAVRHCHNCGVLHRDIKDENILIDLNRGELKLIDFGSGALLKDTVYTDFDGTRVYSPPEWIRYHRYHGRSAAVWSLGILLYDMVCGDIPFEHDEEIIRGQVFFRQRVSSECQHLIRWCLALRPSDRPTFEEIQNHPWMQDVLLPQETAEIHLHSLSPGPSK
UniProt Q9QR71: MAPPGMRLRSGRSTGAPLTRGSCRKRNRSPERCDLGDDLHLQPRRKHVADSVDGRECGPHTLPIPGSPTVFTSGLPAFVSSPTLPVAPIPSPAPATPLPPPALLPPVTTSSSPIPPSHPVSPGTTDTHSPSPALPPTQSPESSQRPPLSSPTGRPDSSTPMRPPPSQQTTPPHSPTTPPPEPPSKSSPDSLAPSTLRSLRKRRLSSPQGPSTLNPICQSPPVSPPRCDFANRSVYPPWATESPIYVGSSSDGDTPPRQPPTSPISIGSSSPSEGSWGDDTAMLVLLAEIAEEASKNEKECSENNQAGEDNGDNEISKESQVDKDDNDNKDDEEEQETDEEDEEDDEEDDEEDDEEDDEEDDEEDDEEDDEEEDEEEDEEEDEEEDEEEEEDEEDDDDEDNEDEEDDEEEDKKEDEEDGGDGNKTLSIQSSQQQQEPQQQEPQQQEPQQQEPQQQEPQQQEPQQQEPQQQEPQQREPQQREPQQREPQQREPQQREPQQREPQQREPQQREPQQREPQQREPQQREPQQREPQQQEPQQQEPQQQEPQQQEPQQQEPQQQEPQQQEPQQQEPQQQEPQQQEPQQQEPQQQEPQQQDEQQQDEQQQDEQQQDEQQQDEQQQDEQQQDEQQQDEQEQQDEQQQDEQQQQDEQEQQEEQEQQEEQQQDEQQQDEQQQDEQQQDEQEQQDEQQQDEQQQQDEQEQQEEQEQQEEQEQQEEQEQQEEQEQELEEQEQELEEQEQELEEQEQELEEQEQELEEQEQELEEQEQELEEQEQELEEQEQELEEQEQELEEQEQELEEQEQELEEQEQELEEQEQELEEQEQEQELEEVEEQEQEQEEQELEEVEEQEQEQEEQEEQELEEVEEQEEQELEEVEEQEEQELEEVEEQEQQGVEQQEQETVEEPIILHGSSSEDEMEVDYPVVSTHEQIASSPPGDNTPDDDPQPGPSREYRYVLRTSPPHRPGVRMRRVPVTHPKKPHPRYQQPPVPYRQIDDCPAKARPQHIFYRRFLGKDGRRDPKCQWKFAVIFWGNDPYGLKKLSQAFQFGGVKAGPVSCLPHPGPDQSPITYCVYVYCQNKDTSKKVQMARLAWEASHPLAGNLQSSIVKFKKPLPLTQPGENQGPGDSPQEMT

Columns and labels:
[1] = target: Pim-1 kinase, endogenous in PEL cells (human (endogenous in BC-3 and BCBL-1)) (UniProt P11309); experiment: co-IP; data not shown; PEL cell lines reactivated with NaB (2 mM, 48 h), immunoprecipitation of Pim-1 and Pim-3
[2] = target: Pim-3 kinase, endogenous in PEL cells (human (endogenous in BC-3 and BCBL-1)) (UniProt Q86V86); experiment: as above
[3] = target: Pim-1 kinase, endogenous in PEL cells (human (endogenous in BC-3 and BCBL-1)) (UniProt P11309); experiment: co-IP; anti-Pim-1 or anti-Pim-3 immunoprecipitation from whole-cell extracts (600 ug; for Pim-1 also 1200 ug) of reactivated PEL cells (BC-3, BCBL-1; TPA 20 ng/ml 48 h; BC-3 also TPA or IFN-gamma 16 h); ELB lysis buffer (150 mM NaCl, 50 mM HEPES pH 7.4, 0.1% Igepal, 5 mM EDTA), 4 C; in vitro kinase assay on co-precipitated proteins, kinase filter immunoblotted with anti-LANA
[4] = target: Pim-3 kinase, endogenous in PEL cells (human (endogenous in BC-3 and BCBL-1)) (UniProt Q86V86); experiment: as above
[5] = target: V5-tagged Pim-3 (wild type) (human) (UniProt Q86V86); experiment: co-IP; 293 cells co-transfected with LANA wt or SS205/206RR and V5-tagged Pim-1 or Pim-3; after 48 h extracts immunoprecipitated with anti-V5; in vitro kinase assay on co-precipitated proteins, filter immunoblotted with anti-LANA and anti-V5
[6] = target: V5-tagged Pim-1 (wild type) (human) (UniProt P11309); experiment: as above

Measured: binding

Latency-associated nuclear antigen (LANA), endogenous in KSHV-infected PEL cells (from UniProt Q9QR71 1-1129)
binds: [1] | [2] | [3] | [4]

LANA wild type, expressed from pCDNA3.1-LANA (from UniProt Q9QR71 1-1129)
binds: [5] | [6]
